Literature values, collected in patent US6964766B1, “Peptides for use in immunotherapy of autoimmune diseases” (Akzo Nobel N.V., priority 1998, dated 2005).
Part of at least one peptide drawing is inferred or uncertain, most often the ends. No end group written: not given here.

Target: T1, HLA-DRB1*0401-encoded molecules (Homo sapiens, UniProt P01903+P01911, A100K/A169T/F76Y/I96L/K127E/L162R/M171V/N62H/P40V/Q125Y/R42H/S133A/S149N/S66Y/V115G/V209L/W38E)
T1 construct: HLA-DR4 (DRB1*0401) molecules were purified from the homozygous EBV-transformed human B lymphoblastoid cell lines Huly138IC2; endogenous in cells; host or cells: homozygous EBV-transformed human B lymphoblastoid cell line Huly138IC2
Conditions: known / Verheijden et al. 1997; cited from earlier work

PKFVKQNTLKLAT [HA-F, PKFVKQNTLKLAT]
affinity for DRB1*0401 molecules (in words): high affinity
